Values from PubChem BioAssay AID1259254 (NCATS, 2017)
Shown is a random part of about 59,000 reagents. Of all reagents, about 1,550 (2.6%) were called active. 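G2 share is only a proxy for re-replication; each gene was hit by three separate siRNAs, and active genes were retested.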 Reagents against one gene are numbered here. Not all columns of the deposit are shown. Reagent sequences are not shown. The record does not give: the amount of reagent.

Aim: 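Genome-wide screen for genes that prevent DNA re-replication in cancer cells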 (primary screen)
Cell system: human HCT116 colorectal cancer cells
Reagents: single siRNA against human genes
Timing: 3 days
Measured: 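Nuclei stained with Hoechst and imaged; cell-cycle phase assigned by DNA content; G2 share scaled per plate, non-targeting siRNA 0%, GMNN siRNA 100%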
Scale: G2 robust z-score and G2 cells, % of GMNN control: higher = more G2 cells, more excess DNA replication
Call rule: 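Active siRNAs have a G2 robust z of 5 or more median absolute deviations over the median, which in these data means about 38% or higher of GMNN control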

| gene symbol | reagent | G2 robust z-score | G2 cells, % of GMNN control | activity call |
| --- | --- | --- | --- | --- |
| BCOR | 1 | 2.17 | 18.2 | inactive |
| BCOR | 2 | -0.53 | -0.763 | inactive |
| BCOR | 3 | 0.803 | 8.62 | inactive |
| ACOT1 | 1 | -0.788 | -2.57 | inactive |
| ACOT1 | 2 | 0.649 | 7.53 | inactive |
| ACOT1 | 3 | 3.47 | 27.4 | inactive |
| CNN3P1 | 1 | -0.528 | -0.745 | inactive |
| CNN3P1 | 2 | 1.01 | 10.1 | inactive |
| CNN3P1 | 3 | 1.44 | 13.1 | inactive |
| GDPD3 | 1 | 4.9 | 37.5 | inactive |
| GDPD3 | 2 | -0.135 | 2.02 | inactive |
| GDPD3 | 3 | 4.57 | 35.1 | inactive |
| PEAK1 | 1 | -0.214 | 1.46 | inactive |
| PEAK1 | 2 | -0.0926 | 2.32 | inactive |
| PEAK1 | 3 | 1.4 | 12.8 | inactive |
| ACOX1 | 1 | 0.0123 | 3.05 | inactive |
| ACOX1 | 2 | 2.08 | 17.6 | inactive |
| ACOX1 | 3 | 4.39 | 33.9 | inactive |
| WDFY2 | 1 | -0.215 | 1.46 | inactive |
| WDFY2 | 2 | 0.159 | 4.09 | inactive |
| WDFY2 | 3 | -0.208 | 1.5 | inactive |
| SLC39A7 | 1 | 2.54 | 20.8 | inactive |
| SLC39A7 | 2 | 6.32 | 47.4 | active |
| SLC39A7 | 3 | 0.289 | 5 | inactive |
| OCLM (retired record) | 1 | -1.28 | -6.01 | inactive |
| OCLM (retired record) | 2 | -0.0269 | 2.78 | inactive |
| OCLM (retired record) | 3 | 3.5 | 27.6 | inactive |
| UGGT1 | 1 | 0.951 | 9.66 | inactive |
| UGGT1 | 2 | 0.499 | 6.48 | inactive |
| UGGT1 | 3 | -0.122 | 2.11 | inactive |
| MAU2 | 1 | -0.408 | 0.0998 | inactive |
| MAU2 | 2 | 5.03 | 38.4 | active |
| MAU2 | 3 | -1.1 | -4.76 | inactive |
| TRIOBP | 1 | 0.373 | 5.59 | inactive |
| TRIOBP | 2 | 0.131 | 3.89 | inactive |
| TRIOBP | 3 | 0.197 | 4.35 | inactive |

Active calls, among the entries above:
| gene symbol | reagent | G2 robust z-score | G2 cells, % of GMNN control | activity call |
| --- | --- | --- | --- | --- |
| SLC39A7 | 2 | 6.32 | 47.4 | active |
| MAU2 | 2 | 5.03 | 38.4 | active |

Next reagents:
| gene symbol | reagent | G2 robust z-score | G2 cells, % of GMNN control | activity call |
| --- | --- | --- | --- | --- |
| FLJ40288 | 1 | 0.486 | 6.39 | inactive |
| FLJ40288 | 2 | 0.226 | 4.56 | inactive |
| FLJ40288 | 3 | -0.934 | -3.61 | inactive |
| BRSK2 | 1 | -0.452 | -0.211 | inactive |
| BRSK2 | 2 | 1.04 | 10.3 | inactive |
| BRSK2 | 3 | -1.36 | -6.62 | inactive |
| KRT72 | 1 | 0.318 | 5.2 | inactive |
| KRT72 | 2 | 1.29 | 12.1 | inactive |
| KRT72 | 3 | -0.45 | -0.199 | inactive |
| SYT1 | 1 | 0.313 | 5.17 | inactive |
| SYT1 | 2 | -0.468 | -0.327 | inactive |
| SYT1 | 3 | -0.802 | -2.67 | inactive |
| EEIG2 | 1 | 1.9 | 16.3 | inactive |
| EEIG2 | 2 | 0.965 | 9.76 | inactive |
| EEIG2 | 3 | -0.27 | 1.07 | inactive |
| GDPGP1 | 1 | 0.0418 | 3.26 | inactive |
| GDPGP1 | 2 | 3.1 | 24.8 | inactive |
| GDPGP1 | 3 | 0.506 | 6.53 | inactive |
| RTL3 | 1 | -0.557 | -0.948 | inactive |
| RTL3 | 2 | -0.411 | 0.0752 | inactive |
| RTL3 | 3 | 1.7 | 14.9 | inactive |
| PTTG2 | 1 | -0.196 | 1.59 | inactive |
| PTTG2 | 2 | 0.609 | 7.25 | inactive |
| PTTG2 | 3 | -0.0514 | 2.61 | inactive |
| PRTG | 1 | 1.38 | 12.7 | inactive |
| PRTG | 2 | -0.316 | 0.746 | inactive |
| PRTG | 3 | -0.0336 | 2.73 | inactive |
| CIDEA | 1 | 6.37 | 47.8 | active |
| CIDEA | 2 | -0.42 | 0.011 | inactive |
| CIDEA | 3 | 1.06 | 10.4 | inactive |
| OR4D2 | 1 | 0.552 | 6.85 | inactive |
| OR4D2 | 2 | 1.81 | 15.7 | inactive |
| OR4D2 | 3 | 1.4 | 12.8 | inactive |
